Results published in article PMC8583706.
These are yes or no findings as the source states them, for the method shown. In cells and extracts the contact can be indirect. Some entries that bind do so weakly or less than the wild type.

Chains of the proteins cited; added tags and fusions are not shown. Residues count along the entry.
UniProt P35869, residues 11-848: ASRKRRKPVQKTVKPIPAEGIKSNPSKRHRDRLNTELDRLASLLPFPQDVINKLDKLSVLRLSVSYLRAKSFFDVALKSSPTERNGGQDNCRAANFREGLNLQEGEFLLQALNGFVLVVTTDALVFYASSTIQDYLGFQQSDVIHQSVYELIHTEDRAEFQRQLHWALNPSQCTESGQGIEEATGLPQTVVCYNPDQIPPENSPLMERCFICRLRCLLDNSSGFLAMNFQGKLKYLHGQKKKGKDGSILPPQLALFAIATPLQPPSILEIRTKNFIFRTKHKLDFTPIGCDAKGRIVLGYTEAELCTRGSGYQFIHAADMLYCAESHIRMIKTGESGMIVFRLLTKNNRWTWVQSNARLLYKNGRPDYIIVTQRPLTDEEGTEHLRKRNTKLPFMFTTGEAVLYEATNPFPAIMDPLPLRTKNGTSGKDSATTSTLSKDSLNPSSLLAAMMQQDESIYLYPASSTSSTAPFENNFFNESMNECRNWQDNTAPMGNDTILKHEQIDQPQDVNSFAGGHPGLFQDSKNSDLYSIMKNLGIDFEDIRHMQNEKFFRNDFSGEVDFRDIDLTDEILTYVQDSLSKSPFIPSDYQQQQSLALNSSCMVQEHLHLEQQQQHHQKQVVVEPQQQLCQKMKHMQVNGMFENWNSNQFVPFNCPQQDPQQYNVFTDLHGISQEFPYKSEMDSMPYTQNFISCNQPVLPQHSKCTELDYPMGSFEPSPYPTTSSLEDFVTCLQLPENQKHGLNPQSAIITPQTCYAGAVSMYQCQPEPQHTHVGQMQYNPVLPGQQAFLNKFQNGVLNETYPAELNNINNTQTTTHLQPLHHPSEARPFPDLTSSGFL
UniProt P35222: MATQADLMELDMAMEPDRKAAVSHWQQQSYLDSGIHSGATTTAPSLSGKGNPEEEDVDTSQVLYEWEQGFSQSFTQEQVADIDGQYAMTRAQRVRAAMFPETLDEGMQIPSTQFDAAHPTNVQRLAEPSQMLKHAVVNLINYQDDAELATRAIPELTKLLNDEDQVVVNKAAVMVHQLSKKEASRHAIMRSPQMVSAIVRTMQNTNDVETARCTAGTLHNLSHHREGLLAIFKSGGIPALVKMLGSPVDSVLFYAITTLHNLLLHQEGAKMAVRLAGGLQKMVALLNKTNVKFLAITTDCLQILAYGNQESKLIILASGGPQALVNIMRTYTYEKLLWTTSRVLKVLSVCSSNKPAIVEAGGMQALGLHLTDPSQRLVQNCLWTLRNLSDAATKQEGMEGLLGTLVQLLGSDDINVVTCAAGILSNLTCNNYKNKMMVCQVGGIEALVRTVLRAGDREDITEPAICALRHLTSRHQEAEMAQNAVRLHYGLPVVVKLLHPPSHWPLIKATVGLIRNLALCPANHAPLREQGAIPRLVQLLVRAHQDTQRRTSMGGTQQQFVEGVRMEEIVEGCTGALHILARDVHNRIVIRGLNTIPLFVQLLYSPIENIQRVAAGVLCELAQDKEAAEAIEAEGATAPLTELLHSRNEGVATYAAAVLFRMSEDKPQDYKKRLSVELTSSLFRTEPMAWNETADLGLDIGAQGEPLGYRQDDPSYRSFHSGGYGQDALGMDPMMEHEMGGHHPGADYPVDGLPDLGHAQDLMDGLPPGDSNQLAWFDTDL

Biological target: Aryl hydrocarbon receptor (human (endogenous in HuH-7)) (UniProt P35869)
Assay: co-IP; lysates (RIPA) of shCtrl and shAhR HuH-7 cells treated with IFN-γ (40 ng/mL) or KYN (100 μM) for 8 h; pre-cleaned with protein G beads; protein G beads coupled with anti-AhR or IgG, 4 °C, 4 h; immunoblot for β-catenin

- binding: binds
Substance: β-catenin (from UniProt P35222 1-781)
